Measurements published in the supplement of paper PMC10849652.
This is one part of the list.

The chains behind the UniProt entries cited, without tags or fusion partners. Where a name states a change or a piece, a line headed by the entry shows the natural chain unless it says otherwise.
UniProt Q6P444: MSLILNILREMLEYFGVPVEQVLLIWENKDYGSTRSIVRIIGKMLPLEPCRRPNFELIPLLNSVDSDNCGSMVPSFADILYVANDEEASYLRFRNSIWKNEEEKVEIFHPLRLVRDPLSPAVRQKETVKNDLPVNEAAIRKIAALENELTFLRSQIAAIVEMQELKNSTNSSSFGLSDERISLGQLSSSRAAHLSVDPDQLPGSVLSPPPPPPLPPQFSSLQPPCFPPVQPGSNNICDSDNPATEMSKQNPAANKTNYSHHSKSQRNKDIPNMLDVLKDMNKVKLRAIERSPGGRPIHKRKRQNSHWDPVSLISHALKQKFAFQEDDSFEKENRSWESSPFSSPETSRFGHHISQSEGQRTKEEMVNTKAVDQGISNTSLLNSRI
UniProt Q13615: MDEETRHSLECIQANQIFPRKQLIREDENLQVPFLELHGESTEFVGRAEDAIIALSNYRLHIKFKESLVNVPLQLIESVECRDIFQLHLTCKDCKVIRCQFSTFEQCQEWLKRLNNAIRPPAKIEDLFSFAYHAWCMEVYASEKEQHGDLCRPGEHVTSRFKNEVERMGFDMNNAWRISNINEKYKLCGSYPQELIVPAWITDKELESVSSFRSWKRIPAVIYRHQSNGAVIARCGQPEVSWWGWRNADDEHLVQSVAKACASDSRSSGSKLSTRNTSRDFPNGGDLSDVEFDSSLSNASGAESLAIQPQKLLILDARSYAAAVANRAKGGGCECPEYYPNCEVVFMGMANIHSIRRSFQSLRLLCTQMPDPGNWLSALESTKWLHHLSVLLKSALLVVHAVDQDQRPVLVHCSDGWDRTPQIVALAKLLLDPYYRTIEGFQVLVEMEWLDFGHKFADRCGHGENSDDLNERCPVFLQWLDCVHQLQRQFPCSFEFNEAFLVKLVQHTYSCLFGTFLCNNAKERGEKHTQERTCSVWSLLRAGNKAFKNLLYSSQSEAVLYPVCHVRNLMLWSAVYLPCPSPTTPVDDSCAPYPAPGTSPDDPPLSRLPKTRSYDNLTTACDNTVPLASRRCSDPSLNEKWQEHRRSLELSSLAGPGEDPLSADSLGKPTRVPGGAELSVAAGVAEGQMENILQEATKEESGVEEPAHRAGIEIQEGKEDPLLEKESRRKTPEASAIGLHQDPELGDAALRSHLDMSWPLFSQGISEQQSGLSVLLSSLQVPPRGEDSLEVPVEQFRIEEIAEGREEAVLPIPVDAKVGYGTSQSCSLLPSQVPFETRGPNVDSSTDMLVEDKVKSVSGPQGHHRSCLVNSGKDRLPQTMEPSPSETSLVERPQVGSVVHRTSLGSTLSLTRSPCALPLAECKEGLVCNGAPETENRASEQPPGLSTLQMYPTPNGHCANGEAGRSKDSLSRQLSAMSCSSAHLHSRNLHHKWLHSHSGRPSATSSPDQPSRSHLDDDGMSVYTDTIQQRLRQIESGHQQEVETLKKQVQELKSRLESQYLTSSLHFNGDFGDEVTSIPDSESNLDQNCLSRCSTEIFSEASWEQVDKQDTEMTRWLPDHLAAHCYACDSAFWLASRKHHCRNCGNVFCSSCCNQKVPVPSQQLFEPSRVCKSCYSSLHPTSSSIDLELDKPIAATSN
UniProt Q13614, whole entry, looked up: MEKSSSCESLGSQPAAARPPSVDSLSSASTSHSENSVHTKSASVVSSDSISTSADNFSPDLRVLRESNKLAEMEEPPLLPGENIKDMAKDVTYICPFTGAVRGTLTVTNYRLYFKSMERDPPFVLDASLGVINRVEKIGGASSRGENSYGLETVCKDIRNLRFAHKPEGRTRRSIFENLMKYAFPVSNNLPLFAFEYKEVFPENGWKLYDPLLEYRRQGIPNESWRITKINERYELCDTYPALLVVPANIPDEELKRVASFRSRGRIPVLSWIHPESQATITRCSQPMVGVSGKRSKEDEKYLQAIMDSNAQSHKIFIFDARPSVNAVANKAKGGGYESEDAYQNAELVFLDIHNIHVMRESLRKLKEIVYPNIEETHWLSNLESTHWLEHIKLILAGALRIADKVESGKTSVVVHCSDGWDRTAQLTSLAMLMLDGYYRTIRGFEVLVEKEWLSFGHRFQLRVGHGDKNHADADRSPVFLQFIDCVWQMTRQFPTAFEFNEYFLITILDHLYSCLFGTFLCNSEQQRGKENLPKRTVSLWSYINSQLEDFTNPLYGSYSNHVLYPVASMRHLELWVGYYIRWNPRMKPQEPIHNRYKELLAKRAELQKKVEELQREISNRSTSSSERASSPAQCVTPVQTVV
UniProt Q9Y217: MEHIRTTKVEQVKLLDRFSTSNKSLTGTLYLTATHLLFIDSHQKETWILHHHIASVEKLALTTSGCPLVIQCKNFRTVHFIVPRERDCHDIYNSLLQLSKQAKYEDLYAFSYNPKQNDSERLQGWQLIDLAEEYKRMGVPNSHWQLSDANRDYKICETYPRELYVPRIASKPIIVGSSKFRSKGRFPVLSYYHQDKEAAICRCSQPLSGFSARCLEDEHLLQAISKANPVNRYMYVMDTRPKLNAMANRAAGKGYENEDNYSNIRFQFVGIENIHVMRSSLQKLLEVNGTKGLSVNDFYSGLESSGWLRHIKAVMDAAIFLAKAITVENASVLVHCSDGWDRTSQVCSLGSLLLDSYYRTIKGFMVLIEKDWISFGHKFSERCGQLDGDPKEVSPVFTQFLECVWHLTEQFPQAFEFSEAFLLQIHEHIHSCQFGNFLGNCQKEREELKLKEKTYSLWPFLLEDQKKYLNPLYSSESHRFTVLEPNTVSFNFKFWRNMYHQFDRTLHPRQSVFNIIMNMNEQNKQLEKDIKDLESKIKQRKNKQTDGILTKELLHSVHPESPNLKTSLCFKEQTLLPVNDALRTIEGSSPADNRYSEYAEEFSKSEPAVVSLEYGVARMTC
UniProt Q9UBK8: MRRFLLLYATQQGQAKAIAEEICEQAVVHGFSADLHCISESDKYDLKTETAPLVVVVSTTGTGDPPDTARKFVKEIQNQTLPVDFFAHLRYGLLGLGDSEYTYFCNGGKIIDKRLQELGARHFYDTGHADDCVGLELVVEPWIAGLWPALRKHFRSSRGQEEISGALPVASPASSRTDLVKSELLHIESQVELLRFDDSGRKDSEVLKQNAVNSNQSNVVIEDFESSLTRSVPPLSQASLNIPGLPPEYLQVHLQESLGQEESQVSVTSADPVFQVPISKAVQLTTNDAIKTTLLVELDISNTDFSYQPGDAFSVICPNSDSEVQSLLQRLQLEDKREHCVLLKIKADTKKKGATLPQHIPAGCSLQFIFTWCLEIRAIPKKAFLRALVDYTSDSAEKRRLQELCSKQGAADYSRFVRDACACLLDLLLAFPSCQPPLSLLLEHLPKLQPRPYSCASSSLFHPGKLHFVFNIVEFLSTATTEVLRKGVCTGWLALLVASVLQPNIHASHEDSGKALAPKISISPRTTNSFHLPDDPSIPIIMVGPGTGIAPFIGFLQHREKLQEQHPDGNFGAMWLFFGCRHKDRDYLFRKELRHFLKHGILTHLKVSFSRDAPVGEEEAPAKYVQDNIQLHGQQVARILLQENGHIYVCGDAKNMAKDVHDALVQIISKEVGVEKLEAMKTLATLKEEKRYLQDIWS
UniProt O75431: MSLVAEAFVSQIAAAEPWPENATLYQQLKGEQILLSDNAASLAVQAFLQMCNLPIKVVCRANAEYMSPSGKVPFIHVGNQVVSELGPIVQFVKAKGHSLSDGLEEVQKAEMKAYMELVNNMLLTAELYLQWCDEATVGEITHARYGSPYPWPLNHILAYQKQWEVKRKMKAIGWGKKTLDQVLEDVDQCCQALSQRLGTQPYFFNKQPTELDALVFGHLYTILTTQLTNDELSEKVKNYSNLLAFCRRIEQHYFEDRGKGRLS
UniProt Q9H019: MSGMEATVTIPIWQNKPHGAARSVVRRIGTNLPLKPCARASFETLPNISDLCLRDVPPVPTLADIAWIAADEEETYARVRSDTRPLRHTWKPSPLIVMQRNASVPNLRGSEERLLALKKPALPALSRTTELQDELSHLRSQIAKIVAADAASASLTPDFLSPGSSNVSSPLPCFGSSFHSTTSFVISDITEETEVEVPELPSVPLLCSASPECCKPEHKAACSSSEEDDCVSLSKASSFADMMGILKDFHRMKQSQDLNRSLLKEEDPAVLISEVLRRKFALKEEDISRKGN
UniProt P13640: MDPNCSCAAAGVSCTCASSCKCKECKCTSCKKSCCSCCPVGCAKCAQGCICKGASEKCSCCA

Tests used:
Test in all cases: log2 fold change, soluble protein after heating vs DMSO (PISA); higher = thermal stabilisation; K562 lysate, 10 uM; active = over 0.2 and 3.5 SD of the protein, either way, in both replicates (recomputed)
lapatinib = compound: CS(=O)(=O)CCNCc1ccc(-c2ccc3ncnc(Nc4ccc(OCc5cccc(F)c5)c(Cl)c4)c3c2)o1 [lapatinib]
Outline: (§1)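 A 30 min treatment with 10 μM compound was applied to crude K562 extract at 1 mg/mL protein in PBS pH 7.4 with 1 mM MgCl2. Heating for 3 min spanned 48°C-58°C, after which aliquots were pooled, adjusted to 0.5% NP-40 at 4°C and spun at 21,000xg for 90 min. TMTpro 16plex LC-MS/MS of the supernatant, with channel sums equalised, gave values recorded as log-two fold change in thermal stability against solvent controls, from duplicates.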

pictilisib = compound: CS(=O)(=O)N1CCN(Cc2cc3nc(-c4cccc5[nH]ncc45)nc(N4CCOCC4)c3s2)CC1 [pictilisib]
Outline: as §1

crizotinib = compound: C[C@@H](Oc1cc(-c2cnn(C3CCNCC3)c2)cnc1N)c1c(Cl)ccc(F)c1Cl [crizotinib]
Outline: as §1

[1] = compound: C[C@H](C1=CC=C(C=C1)C(=O)NC2=C3C=CNC3=NC=C2)N
Outline: as §1

duvelisib = compound: C[C@H](Nc1ncnc2nc[nH]c12)c1cc2cccc(Cl)c2c(=O)n1-c1ccccc1 [duvelisib]
Outline: as §1

gandotinib = compound: Cc1cc(Nc2cc(CN3CCOCC3)c3nc(C)c(Cc4ccc(Cl)cc4F)n3n2)n[nH]1 [gandotinib]
Outline: as §1

tozasertib = compound: Cc1cc(Nc2cc(N3CCN(C)CC3)nc(Sc3ccc(NC(=O)C4CC4)cc3)n2)n[nH]1 [tozasertib]
Outline: as §1

doramapimod = compound: Cc1ccc(-n2nc(C(C)(C)C)cc2NC(=O)Nc2ccc(OCCN3CCOCC3)c3ccccc23)cc1 [doramapimod]
Outline: as §1

bafetinib = compound: Cc1ccc(NC(=O)c2ccc(CN3CC[C@H](N(C)C)C3)c(C(F)(F)F)c2)cc1Nc1nccc(-c2cncnc2)n1 [bafetinib]
Outline: as §1

[2] = compound: Cc1cccc(CC(=O)N2CCc3c2ccc(-c2cn(C)c4ncnc(N)c24)c3F)n1
Outline: as §1

nilotinib = compound: Cc1cn(-c2cc(NC(=O)c3ccc(C)c(Nc4nccc(-c5cccnc5)n4)c3)cc(C(F)(F)F)c2)cn1 [nilotinib]
Outline: as §1

[3] = compound: Cc1nc(Nc2n[nH]c3c2CN(C(=O)N[C@H](CN(C)C)c2ccccc2)C3(C)C)c2sccc2n1
Outline: as §1

dasatinib = compound: Cc1nc(Nc2ncc(C(=O)Nc3c(C)cccc3Cl)s2)cc(N2CCN(CCO)CC2)n1 [dasatinib]
Outline: as §1

[4] = compound: Cc1ncc(-c2ccnc(Nc3ccc(S(C)(=O)=O)cc3)n2)n1C(C)C
Outline: as §1

[5] = compound: Cn1cc(-c2ccc3c(c2)CCN3C(=O)Cc2cccc(C(F)(F)F)c2)c2c(N)ncnc21
Outline: as §1

quisinostat = compound: Cn1cc(CNCC2CCN(c3ncc(C(=O)NO)cn3)CC2)c2ccccc21 [quisinostat]
Outline: as §1

tipifarnib = compound: Cn1cncc1[C@@](N)(c1ccc(Cl)cc1)c1ccc2c(c1)c(-c1cccc(Cl)c1)cc(=O)n2C [tipifarnib]
Outline: as §1

[6] = compound: NC(=O)Nc1cc(-c2cccc(F)c2)sc1C(=O)N[C@H]1CCCNC1
Outline: as §1

[7] = compound: NC(=O)c1cnc(N[C@@H]2CCCC[C@@H]2N)nc1Nc1cccc(-n2nccn2)c1
Outline: as §1

[8] = compound: NC1(c2ccc(-c3nc4ccn5c(=O)[nH]nc5c4cc3-c3ccccc3)cc2)CCC1
Outline: as §1

Measured: log2 fold change

MRPS33 (UniProt Q9Y291)
inactive: lapatinib 0.035 | pictilisib -0.004 | crizotinib 0.1 | [1] 0.033 | duvelisib -0.002 | gandotinib -0.073 | tozasertib -0.063 | doramapimod -0.03 | bafetinib 0.04 | [2] -0.071 | nilotinib -0.166 | [3] 0.004 | dasatinib 0.048 | [4] 0.015 | [5] 0.097 | quisinostat 0.155 | tipifarnib 0.133 | [6] -0.024 | [7] 0.016 | [8] -0.016

MTFR2 (UniProt Q6P444)
inactive: lapatinib -0.016 | pictilisib 0.019 | crizotinib -0.051 | [1] -0.029 | duvelisib -0.022 | gandotinib -0.323 | tozasertib -0.095 | doramapimod 0.015 | bafetinib -0.075 | [2] 0.146 | nilotinib 0.083 | [3] -0.042 | dasatinib -0.047 | [4] 0.072 | [5] 0.006 | quisinostat -0.056 | tipifarnib -0.004 | [6] 0.026 | [7] -0.069 | [8] 0.035

MTMR3 (UniProt Q13615)
inactive: lapatinib -0.062 | pictilisib 0.009 | crizotinib -0.093 | [1] -0.037 | duvelisib -0.03 | gandotinib 0.016 | tozasertib 0.043 | doramapimod -0.077 | bafetinib -0.007 | [2] 0.037 | nilotinib 0.019 | [3] 0 | dasatinib 0.018 | [4] 0.005 | [5] 0.071 | quisinostat -0.024 | tipifarnib -0.013 | [6] 0.018 | [7] 0.022 | [8] -0.024

MRPS21 (UniProt P82921)
inactive: lapatinib -0.104 | pictilisib 0.267 | crizotinib -0.086 | [1] 0.038 | duvelisib 0 | gandotinib -0.08 | tozasertib 0.129 | doramapimod -0.123 | bafetinib 0.064 | [2] 0.006 | nilotinib 0.032 | [3] -0.048 | dasatinib 0.022 | [4] 0.078 | [5] 0 | quisinostat -0.052 | tipifarnib -0.17 | [6] 0.056 | [7] -0.027

MTMR2 (UniProt Q13614)
inactive: lapatinib -0.022 | pictilisib 0 | crizotinib -0.05 | [1] -0.013 | duvelisib 0.003 | gandotinib 0.022 | tozasertib -0.035 | doramapimod -0.019 | bafetinib -0.008 | [2] -0.003 | nilotinib 0.001 | [3] -0.05 | dasatinib 0.029 | [4] -0.067 | [5] 0.008 | quisinostat -0.071 | tipifarnib -0.003 | [6] 0.028 | [7] 0.038 | [8] 0.012

MTMR6 (UniProt Q9Y217)
inactive: lapatinib 0.017 | pictilisib 0.025 | crizotinib -0.037 | [1] 0.071 | duvelisib 0.02 | gandotinib -0.024 | tozasertib 0.014 | doramapimod 0.056 | bafetinib 0.001 | [2] -0.113 | nilotinib -0.04 | [3] 0.063 | dasatinib -0.036 | [4] -0.026 | [5] -0.076 | quisinostat -0.116 | tipifarnib -0.024 | [6] 0.086 | [7] -0.007 | [8] -0.032

MTRR isoform 1 (UniProt Q9UBK8)
inactive: lapatinib 0.068 | pictilisib -0.007 | crizotinib -0.024 | [1] -0.001 | duvelisib 0.015 | gandotinib -0.021 | tozasertib -0.003 | doramapimod 0.037 | bafetinib -0.013 | [2] 0.029 | nilotinib 0.017 | [3] -0.017 | dasatinib 0.041 | [4] 0.006 | [5] 0.027 | quisinostat -0.02 | tipifarnib 0.01 | [6] 0.027 | [7] 0.002 | [8] 0.017

MTX2 (UniProt O75431)
inactive: lapatinib -0.006 | pictilisib -0.025 | crizotinib -0.036 | [1] 0.062 | duvelisib -0.037 | gandotinib -0.068 | tozasertib -0.024 | doramapimod -0.032 | bafetinib -0.05 | [2] -0.026 | nilotinib 0.025 | [3] -0.018 | dasatinib -0.024 | [4] 0.004 | [5] -0.007 | quisinostat 0.052 | tipifarnib 0.01 | [6] 0.015 | [7] -0.023 | [8] -0.009

MTHFD1L (UniProt B7ZM99)
inactive: lapatinib -0.075 | pictilisib -0.036 | crizotinib -0.036 | [1] 0.017 | duvelisib 0.026 | gandotinib -0.039 | tozasertib 0.002 | doramapimod 0.035 | bafetinib -0.054 | [2] 0.018 | nilotinib -0.017 | [3] 0.028 | dasatinib -0.061 | [4] 0.002 | [5] 0.046 | quisinostat -0.055 | tipifarnib -0.01 | [6] 0.074 | [7] 0.019 | [8] -0.017

Random excerpt: 2 records from the list
MTMR2 (UniProt Q13614)
inactive: lapatinib -0.022 | pictilisib 0 | crizotinib -0.05 | [1] -0.013 | duvelisib 0.003 | gandotinib 0.022 | tozasertib -0.035 | doramapimod -0.019 | bafetinib -0.008 | [2] -0.003 | nilotinib 0.001 | [3] -0.05 | dasatinib 0.029 | [4] -0.067 | [5] 0.008 | quisinostat -0.071 | tipifarnib -0.003 | [6] 0.028 | [7] 0.038 | [8] 0.012

MTHFD1L (UniProt B7ZM99)
inactive: lapatinib -0.075 | pictilisib -0.036 | crizotinib -0.036 | [1] 0.017 | duvelisib 0.026 | gandotinib -0.039 | tozasertib 0.002 | doramapimod 0.035 | bafetinib -0.054 | [2] 0.018 | nilotinib -0.017 | [3] 0.028 | dasatinib -0.061 | [4] 0.002 | [5] 0.046 | quisinostat -0.055 | tipifarnib -0.01 | [6] 0.074 | [7] 0.019 | [8] -0.017

Following part.

MTFR1L (UniProt Q9H019)
inactive: lapatinib 0.072 | pictilisib 0.021 | crizotinib -0.026 | [1] -0.026 | duvelisib -0.016 | gandotinib 0.023 | tozasertib -0.045 | doramapimod 0.023 | bafetinib -0.077 | [2] 0.017 | nilotinib -0.019 | [3] 0.043 | dasatinib -0.115 | [4] 0.006 | [5] -0.029 | quisinostat -0.043 | tipifarnib -0.092 | [6] 0 | [7] -0.08 | [8] 0.129

MT1G (UniProt P13640)
inactive: lapatinib 0.07 | pictilisib 0.019 | crizotinib 0.053 | [1] -0.037 | duvelisib 0.067 | gandotinib 0.016 | tozasertib 0.104 | doramapimod 0.086 | bafetinib 0.063 | [2] 0.043 | nilotinib 0.173 | [3] 0.041 | dasatinib -0.162 | [4] 0.264 | [5] -0.289 | quisinostat 0.099 | tipifarnib 0.089 | [6] -0.12 | [7] -0.037 | [8] -0.05

MRPS6 (UniProt P82932)
inactive: lapatinib 0.003 | pictilisib -0.007 | crizotinib -0.052 | [1] -0.011 | duvelisib 0.088 | gandotinib 0.006 | tozasertib 0.063 | doramapimod 0.065 | bafetinib -0.049 | [2] -0.011 | nilotinib -0.004 | [3] -0.003 | dasatinib -0.027 | [4] -0.096 | [5] 0 | quisinostat -0.082 | tipifarnib -0.044 | [6] 0.028 | [7] -0.01 | [8] 0.05

MRPS22 (UniProt P82650)
inactive: lapatinib -0.003 | pictilisib -0.079 | crizotinib -0.007 | [1] 0.014 | duvelisib 0.05 | gandotinib -0.077 | tozasertib 0.071 | doramapimod 0.072 | bafetinib -0.042 | [2] -0.024 | nilotinib -0.068 | [3] 0.001 | dasatinib 0.03 | [4] 0.117 | [5] 0.062 | quisinostat -0.086 | tipifarnib 0.032 | [6] 0.054 | [7] 0.002 | [8] -0.012

MRPL52 (UniProt Q86TS9)
inactive: lapatinib 0.187 | pictilisib 0.072 | crizotinib 0.109 | [1] -0.123 | duvelisib -0.01 | gandotinib 0.062 | tozasertib 0.052 | doramapimod -0.192 | bafetinib 0.03 | [2] 0.049 | nilotinib 0.248 | [3] -0.093 | dasatinib -0.003 | [4] 0.08 | [5] -0.032 | quisinostat 0.078 | tipifarnib -0.064 | [6] -0.02 | [7] 0.093 | [8] -0.101

MRPL54 (UniProt Q6P161)
inactive: lapatinib -0.043 | pictilisib 0.075 | crizotinib -0.064 | [1] 0.103 | duvelisib 0.03 | gandotinib -0.015 | tozasertib 0.054 | doramapimod 0.026 | bafetinib -0.071 | [2] -0.071 | nilotinib 0.011 | [3] -0.006 | dasatinib 0.032 | [4] 0.007 | [5] 0.033 | quisinostat -0.108 | tipifarnib 0.03 | [6] 0.003 | [7] -0.014 | [8] 0.005

MRPS12 (UniProt O15235)
inactive: lapatinib 0.006 | pictilisib -0.024 | crizotinib -0.019 | [1] 0.003 | duvelisib -0.022 | gandotinib -0.022 | tozasertib 0.048 | doramapimod 0.03 | bafetinib 0.036 | [2] -0.003 | nilotinib -0.026 | [3] 0.061 | dasatinib -0.104 | [4] -0.041 | [5] -0.007 | quisinostat -0.051 | tipifarnib -0.012 | [6] 0.01 | [7] 0.018 | [8] 0.063
